Source: PubChem BioAssay AID540276 (National Center for Advancing Translational Sciences (NCATS), 2011)
Hit rate of the full screen: of about 300,000 compounds, about 5,400 (1.8%) were called active. The shares of active, inactive and inconclusive entries below differ from those in the screen. The call rests on the fitted dose curve; tested in HEK293 cells. A potency beside an inconclusive call is a rough fit, not a confirmed value.

Assay: qHTS for inhibitors of binding or entry into cells for Marburg Virus
Details: Marburg virus pseudotyped entry inhibition, cell reporter; activity change, negative = inhibition: at 37.8 µM (top of the series) unless noted
On the % scale 0 is the no-effect control and ±100 the full control effect; potency means the concentration at half of the fitted maximal effect.

Structure (SMILES) | activity change, negative = inhibition | Potency
C=C1c2ccc(C)cc2NC(=O)N1c1ccccc1 | inactive: 16.3% | –
O=C(Nc1ccccc1F)c1oc2ccccc2c1NC(=O)c1c(F)cccc1F | – | inconclusive: 20 µM [activator, single point]
Cc1cccc(-c2nnc(SCC(=O)N3CCCCC3)o2)c1 | – | inconclusive: 10 µM [activator, partial curve, poor fit]
Cc1c(NC(=O)c2ccc(COc3ccc4ccccc4c3)o2)c(=O)n(-c2ccccc2)n1C | – | inconclusive: 0.141 µM [activator, full curve, poor fit]
Cc1ccc(NC(=O)Cc2c(O)c3ccccc3[nH]c2=O)c(C)c1 | inactive: -0.676% | –
O=[N+]([O-])c1ccc(C2Oc3ccccc3C3CC(c4ccccc4)=NN32)s1 (stereo unspecified) | – | inconclusive: 29.1 µM [inhibitor, single point]
COc1ccc(S(=O)(=O)c2c(O)c(C)cc(NC(=O)c3ccccc3)c2C(C)C)cc1 | inactive: -16.5% [at 46.1 µM] | –
N#C[C@]12CCCC[C@@H]1C[C@H]1CCCC[C@@]1(C#N)N2Cc1cccnc1 | – | inconclusive: 31.6 µM [activator, single point]
Cn1c2c(c(=O)n(C)c1=O)C(C(F)(F)F)(C(F)(F)F)N=C(CCC1CCCCC1)N2 | – | active: 11.2 µM
O=C(N/N=C/c1cn(-c2ccccc2)nc1-c1cccs1)c1ccccc1F | – | inconclusive: 35.5 µM [inhibitor, single point]
CCCC(C)c1nnc(NC(=O)C(=O)OCC)s1 (stereo unspecified) | – | inconclusive: 5.62 µM [inhibitor, single point]
COc1ccccc1C(=O)NCC(=O)N/N=C/c1cc(Br)ccc1OCc1ccccc1 | – | inconclusive: 12.6 µM [inhibitor, single point]
CCc1cc2cc(OC)ccc2nc1SCC(=O)NNC(=O)c1ccco1 | – | inconclusive: 35.5 µM [inhibitor, single point]
Cn1nnnc1SCCNCc1cccnc1 | – | inconclusive: 0.58 µM [activator, single point]
Cn1nc(C(=O)NCCc2ccc(Cl)cc2)c2c1-c1ccccc1SC2 | inactive: 13% [at 46.1 µM] | –
COc1cc(NC(=O)c2ccccc2Cl)ccc1NC(=O)c1cccs1 | – | inconclusive: 5.01 µM [activator, single point]
CN(C(=O)c1cc2nc(-c3ccc4c(c3)OCO4)cc(C(F)(F)F)n2n1)c1ccc(OC(F)(F)F)cc1 | inactive: 22.9% [at 46.1 µM] | –
CCCSc1nc2sc3c(c2c(=O)n1-c1ccc(C)c(Cl)c1)CCN(C(C)=O)C3 | inactive: -28.5% [at 46.1 µM] | –
COc1ccccc1-c1c(C(F)(F)F)oc2cc(OS(C)(=O)=O)ccc2c1=O | – | inconclusive: 22.4 µM [inhibitor, single point]
O=S(=O)(c1cccc2cccnc12)N1CCCc2ccccc21 | inactive: -21.8% [at 46.1 µM] | –
O=C(Nc1cc2c(cc1Cl)OCCCO2)c1ccc(F)cc1 | inactive: 3.96% | –
O=[N+]([O-])c1ccc(O)c(/C=N/NC2=NS(=O)(=O)c3ccccc32)c1 | – | inconclusive: 2.51 µM [activator, full curve, poor fit]

Structure (SMILES) | activity change, negative = inhibition | Potency
CC(=O)Nc1ccccc1-c1nc2ccccc2nc1OCC(=O)c1ccc2ccccc2c1 | – | inconclusive: 29.1 µM [inhibitor, single point]
COc1ccc(-c2cn3cccc(C)c3n2)cc1Br | – | inconclusive: 35.5 µM [inhibitor, single point]
CCc1nnc(NC(=O)C2CCN(C(=O)NC3CCCCC3)CC2)s1 | – | inconclusive: 5.62 µM [activator, single point]
CCCn1c(NC(=O)CN2C(=O)NC3(CCCCC3)C2=O)nc2ccccc21 | – | inconclusive: 17.8 µM [inhibitor, single point]
COc1ccc([C@H]2C[C@@H](O)[C@H](n3cc(COC(=O)c4ccccc4)nn3)CN2C(=O)C2CCCCC2)cc1 | – | inconclusive: 0.125 µM [inhibitor, full curve, poor fit]
C/C(=N\Nc1cccc2ccccc12)c1c(O)n(Cc2ccccc2)c(=O)[nH]c1=O | – | inconclusive: 35.5 µM [inhibitor, partial curve, poor fit]
COc1cccc2sc(Nc3nc4ccc(NC(C)=O)cc4s3)nc12 | – | active: 7.31 µM
CCOc1ccccc1N1CCN(C(=O)CCNS(=O)(=O)c2ccccc2F)CC1 | inactive: -28.4% | –
Cc1ccc(CCSCC(=O)O)cn1 | inactive: -0.298% | –
Cc1ccc(C(=O)NCc2ccccc2)cc1Br | inactive: 13.8% | –
CCCc1ccc(OCc2ccc(C(=O)N3CCCC3)o2)cc1 | – | inconclusive: 35.5 µM [inhibitor, single point]
CCCn1c(NC(=S)Nc2ccccc2)nc2ccccc21 | – | inconclusive: 6.31 µM [inhibitor, full curve, poor fit]
CC(C)c1ccc(OCC(=O)NCC(c2ccc(Cl)cc2)N2CCOCC2)cc1 (stereo unspecified) | – | inconclusive: 35.5 µM [inhibitor, single point]
CCN1CCN(c2ccc(S(=O)(=O)N3CCCCC3)cc2NC(=O)/C=C/c2ccc(OC(F)F)cc2)CC1 | – | inconclusive: 22.4 µM [inhibitor, single point]
O=[N+]([O-])c1c(NCCCO)cc(N2CCN(Cc3ccc4c(c3)OCO4)CC2)c2nonc12 | – | inconclusive: 28.2 µM [inhibitor, partial curve, poor fit]
CCOC(=O)[C@@H](C)N(Cc1ccc(OC)cc1)S(=O)(=O)N(Cc1ccccc1)[C@H](C(=O)OC)C(C)C | inactive: -0.136% | –
CCN(Cc1ccccc1)C(=O)Cn1c(=O)n(-c2cccc(C)c2)c(=O)c2c1c1cc(OC)ccc1n2C | inactive: -3.01% [at 46.1 µM] | –
COc1cccc(C(=O)NC2CC3CCCC(C2)N3CC(=O)Nc2ccc(N(C)C)cc2)c1 (stereo unspecified) | – | inactive
COC(=O)C1=CN(Cc2ccc(OC)cc2)C=C(C(=O)OC)C1c1cc(OC)c(OC)c(OC)c1 | – | inconclusive: 15.8 µM [inhibitor, partial curve, poor fit]
CCCCCOC(=O)c1c(N)n(CCOC)c2nc3ccccc3nc12 | – | inconclusive: 32.6 µM [inhibitor, partial curve, poor fit]
Cc1ccc(S(=O)(=O)NCCC(=O)OCC(=O)NCCc2ccccc2)cc1C | – | inconclusive: 1.41 µM [inhibitor, single point]
CCNS(=O)(=O)c1ccc(CCC(=O)Nc2ccccc2C(=O)OC)cc1 | – | inconclusive: 1.26 µM [inhibitor, partial curve, poor fit]

In the list so far, 2 contain an NH in an aromatic ring:
Structure (SMILES) | activity change, negative = inhibition | Potency
Cc1ccc(NC(=O)Cc2c(O)c3ccccc3[nH]c2=O)c(C)c1 | inactive: -0.676% | –
C/C(=N\Nc1cccc2ccccc12)c1c(O)n(Cc2ccccc2)c(=O)[nH]c1=O | – | inconclusive: 35.5 µM [inhibitor, partial curve, poor fit]

The results go on.

Structure (SMILES) | activity change, negative = inhibition | Potency
C=CC1CN2CCC1CC2C(OC(C)=O)c1ccnc2ccc(OC)cc12 (stereo unspecified) | inactive: -21.6% | –
CN1C2CCC1/C(=C/c1cccn1C)C(=O)/C2=C\c1cccn1C | – | inconclusive: 35.5 µM [inhibitor, single point]
Brc1ccc(N=Cc2ccccn2)cc1 | – | inconclusive: 5.01 µM [activator, full curve]
Cc1cc(C)cc(C(=O)NC(=S)Nc2ccc(Cc3ccncc3)cc2)c1 | – | inconclusive: 1 µM [inhibitor, partial curve]
O=C(N=C1N=C2C=CC=CN2Cc2ccccc21)c1ccc(S(=O)(=O)N2CCCC2)cc1 | inactive: 8.74% [at 46.1 µM] | –
COc1ccc(C(=O)Nc2nc3n(n2)C(c2ccc(Cl)cc2)C=C(c2ccccc2)N3)cc1OC (stereo unspecified) | – | inconclusive: 22.4 µM [inhibitor, partial curve, poor fit]
c1ccc(-c2nc(N3CCOCC3)sc2-c2ccccc2)cc1 | – | inconclusive: 11.2 µM [inhibitor, partial curve, poor fit]
Cc1ccc(C)c(CN2C(=O)c3ccccc3S(=O)c3ccc(C(=O)N4CCOCC4)cc32)c1 (stereo unspecified) | – | inconclusive: 6.31 µM [activator, single point]
Cc1ccc(NC(=O)c2ccc(NCC3CCCO3)c([N+](=O)[O-])c2)cc1Cl (stereo unspecified) | – | inconclusive: 8.91 µM [inhibitor, partial curve, poor fit]
CC(Sc1nc(=O)cc(N)n1CCc1ccccc1)C(=O)Nc1cccc(Cl)c1 (stereo unspecified) | – | inconclusive: 35.5 µM [inhibitor, single point]
COc1cc(/C=N/Nc2nn3cnnc3c3ccccc23)cc(OC)c1OC | – | inconclusive: 2.51 µM [inhibitor, full curve, poor fit]
CSc1cccc(NC(=O)CN(C)S(=O)(=O)c2ccc(C)cc2)c1 | – | inconclusive: 35.5 µM [inhibitor, single point]
CC(C)OC(=O)c1c(N)n(Cc2ccco2)c2nc3ccccc3nc12 | inactive: -0.636% | –
CCn1c(C)nc2cc(-c3nnc(-c4c(-c5ccccc5)noc4C)o3)ccc21 | inactive: -49.5% | –
COc1ccccc1NC(=O)c1ccccc1NC(=O)c1cc(Cl)ccc1NC(=O)c1ccco1 | – | inconclusive: 23.1 µM [inhibitor, partial curve, poor fit]
COc1ccccc1OCC(=O)OCC(=O)NC1CCCCC1 | – | inconclusive: 3.55 µM [inhibitor, single point]
CCOc1ccccc1NC(=O)Cn1c(=O)n(Cc2cccs2)c(=O)c2cccnc21 | inactive: 1.2% [at 46.1 µM] | –
CCCS(=O)(=O)Nc1cc(-c2cn3ccc(C)cc3n2)ccc1C | – | inconclusive: 3.16 µM [activator, single point]
Cc1nn(-c2cccc(Cl)c2)c2nc(-c3ccncc3)cc(C(=O)N3CCOCC3)c12 | inactive: -70.3% | –
Nc1nc2c(nc(Br)n2C2OC3COP(=O)(O)O[C@@H]3C2O)c(=O)[nH]1 (stereo partly specified) | – | inconclusive: 2.59 µM [inhibitor, full curve]
CC1(C)Cc2c(sc3nc(-c4cccs4)n(N)c(=O)c23)CO1 | – | inconclusive: 16.4 µM [inhibitor, single point]
COC(=O)c1ccccc1NC(=O)c1ccnn1C | – | inconclusive: 35.5 µM [inhibitor, single point]
